PubChem BioAssay AID1508588, Peter MacCallum Cancer Centre, 2020
The deposit covers about 18,000 reagents; below is a part drawn at random. 790 of all reagents (4.4%) count as active. 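Calls rest on a combination of fold-change classes in drug and vehicle arms, not all shown here.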

Assay: 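Genome-wide search for knock-downs that heighten vemurafenib action in melanoma cells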 (primary screen)
Cells: human WM266.4 melanoma cells (BRAF V600 mutant)
Knock-down reagent: siRNA pool against human genes, 40 nM
Duration: 96 h from transfection to read-out
Conditions: vemurafenib 300 nM (about IC25), added 48 h after transfection, for 48 h; comparison arm got DMSO vehicle only
Detection: 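Cell gain (DAPI nuclei at end minus before drug, mean of two replicates) and medium lactate by absorbance per cell, both as ratio to non-targeting siRNA, also grouped into fold-change classes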
Direction: cell gain with vemurafenib: higher = more cell gain than with non-targeting siRNA; lactate per cell with vemurafenib: higher = more lactate made per cell
Hit rule: 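a knock-down counts as enhancing when its fold-change classes with vehicle and with vemurafenib, taken together, show a stronger drug effect on cell gain or lactate per cell; exact class pairs not stated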
Calls: active = enhances vemurafenib effect; inactive = no enhancement seen

| gene symbol | PubChem SID | cell gain with vemurafenib | lactate per cell with vemurafenib | activity call |
| --- | --- | --- | --- | --- |
| RGS18 | SID135621582 | 0.73 | 1 | inactive |
| CENPT | SID135622768 | 0.87 | 1.07 | inactive |
| DMBT1 | SID152148665 | 0.56 | 0.76 | inactive |
| DPM2 | SID135623352 | 0.41 | 0.52 | inactive |
| ZSCAN4 | SID135623159 | 0.46 | 1.02 | inactive |
| HYPK | SID134320815 | 0.63 | 0.9 | inactive |
| DNAJC12 | SID134318166 | 1.13 | 0.82 | inactive |
| DNTTIP2 | SID152146868 | 0.12 | 0.55 | inactive |
| CMTM3 | SID134315243 | 0.24 | 1.87 | inactive |
| PRKAG3 | SID56479232 | -0.04 | 3.62 | inactive |
| IGFBP2 | SID152152542 | 0.58 | 0.49 | active |
| TESC | SID135624077 | 0.68 | 0.76 | inactive |
| ACBD5 | SID152153829 | 0.7 | 0.72 | inactive |
| PLAGL1 | SID152150359 | 0.09 | 0.32 | active |
| VANGL2 | SID152153305 | 1.14 | 0.92 | inactive |
| HOXA3 | SID152152935 | 0.92 | 0.74 | inactive |
| VWA1 | SID135623127 | 0.99 | 1.08 | inactive |
| LINGO1 | SID134322473 | 0.72 | 0.98 | inactive |
| STON2 | SID134320184 | -0.09 | 0.16 | active |
| DEPDC7 | SID152155510 | 0.79 | 0.75 | inactive |
| ARHGEF25 | SID152148884 | 0.72 | 0.62 | inactive |
| PDIK1L | SID152147170 | 0.7 | 0.4 | active |
| ALG2 | SID152148135 | 0.64 | 0.49 | active |
| DDX53 | SID135623722 | 1.04 | 0.7 | inactive |
| ZHX1 | SID152151789 | 0.39 | 0.67 | active |
| CPO | SID134311254 | 0.78 | 0.64 | inactive |
| UPB1 | SID152147504 | 0.42 | 1 | inactive |
| COL5A3 | SID152152475 | 1.3 | 0.86 | inactive |
| DLGAP2 | SID134314369 | 0.81 | 0.79 | inactive |
| RUVBL2 | SID134316580 | 0.14 | 1.72 | inactive |
| PDGFD | SID152148479 | 0.45 | 1.84 | inactive |
| TMC1 | SID152148476 | 0.73 | 2.08 | inactive |
| H3C14 | SID134322908 | 0.83 | 0.94 | inactive |
| ASB14 | SID135622478 | 0.31 | 1.44 | inactive |
| FYCO1 | SID135622723 | 0.32 | 0.93 | inactive |
| ZUP1 | SID134319911 | 0.87 | 0.3 | inactive |
| GPR62 | SID152154728 | 1 | 0.68 | inactive |
| KLRC4 | SID135622563 | 0.51 | 1.23 | inactive |
| IMPACT | SID152151589 | 0.42 | 0.68 | inactive |
| ADAMTS1 | SID134311190 | -0.14 | 3.38 | inactive |
| L1CAM-AS1 | SID135625467 | 0.56 | 1.14 | inactive |
| TMEM64 | SID135624522 | 0.98 | 1.02 | inactive |
| CCDC185 | SID134321132 | 0.55 | 1.08 | inactive |
| B3GALNT1 | SID152155987 | 0.69 | 0.57 | inactive |
| MRPL2 | SID134321208 | 0.59 | 1.31 | inactive |
| RNF212 | SID152149215 | 0.58 | 1.17 | inactive |
| NME4 | SID56479075 | 0.83 | 0.57 | inactive |
| EFHD1 | SID134315166 | 0.76 | 1.09 | inactive |
| DDO | SID152152702 | 1.01 | 1.24 | inactive |
| C14orf180 | SID152156298 | 0.22 | 1.96 | inactive |
| DEFB129 | SID134317686 | 0.61 | 0.7 | inactive |
| MEX3A | SID152153694 | 1.12 | 0.86 | inactive |
| ZNF611 | SID134318799 | 0.33 | 0.83 | inactive |
| OR7G2 | SID152147704 | 0.47 | 1.56 | inactive |
| PRSS3 | SID134311438 | 0.78 | 0.87 | inactive |
| OR10AG1 | SID134329932 | 0.5 | 1.34 | inactive |
| F2RL3 | SID135621001 | 0.84 | 1.77 | inactive |
| PACS1 | SID152155962 | 0.58 | 1.43 | inactive |
| BNIP2 | SID134316131 | 0.71 | 0.63 | inactive |
| KRT19 | SID152146987 | 0.48 | 0.82 | inactive |
| TRIM3 | SID134312057 | 1.12 | 0.82 | inactive |
| OAZ3 | SID152150281 | 0.29 | 0.55 | inactive |
| PSPHP1 | SID152152694 | 1.27 | 1.08 | inactive |
| SEMA3B | SID152155120 | 0.34 | 1.23 | inactive |
| SLC66A1 | SID152153274 | 0.37 | 0.45 | active |
| SLC35B2 | SID152151548 | 0.73 | 1 | inactive |
| C11orf71 | SID134324209 | 0.36 | 1.5 | inactive |
| CNIH4 | SID135624043 | 0.42 | 1.68 | inactive |
| TTL | SID134314543 | 0.95 | 0.76 | inactive |
| DEFB118 | SID135622910 | 0.42 | 0.88 | inactive |
| ZNF585A | SID134320424 | 0.84 | 0.86 | inactive |
| HTATIP2 | SID135623076 | 0.49 | 0.6 | inactive |
| RBM14 | SID152148561 | 1.06 | 0.78 | inactive |
| NEIL1 | SID134313206 | 0.42 | 1.02 | inactive |
| BYSL | SID152155349 | 0.35 | 2.08 | inactive |
| UNC13D | SID152152150 | 0.82 | 0.68 | inactive |
| TAF15 | SID134313771 | 0.75 | 0.1 | inactive |
| STAR | SID135623734 | 0.18 | 0.68 | inactive |
| EDNRA | SID135620999 | 0.97 | 0.22 | inactive |
| SLC50A1 | SID135624011 | 0.57 | 0.9 | inactive |
| ANXA13 | SID152152838 | 0.97 | 1.25 | inactive |
| BRWD3 | SID152150726 | 1.01 | 0.75 | inactive |
| LRTOMT | SID152154552 | 0.2 | 1.13 | inactive |
| GPR137B | SID135621068 | 0.63 | 0.52 | inactive |
| PTER | SID134313597 | 0.48 | 0.6 | inactive |
| TRIM48 | SID134312182 | 0.72 | 1.27 | inactive |
| EPCIP | SID152147915 | 0.29 | 0.58 | inactive |
| LIMK1 | SID135621436 | 1 | 0.94 | inactive |
| SLC25A44 | SID152156475 | 0.36 | 1.52 | inactive |
| ETFA | SID152147474 | 0.34 | 1.02 | inactive |
| LMLN | SID152151556 | 0.8 | 0.79 | inactive |
| GLUL | SID152156116 | 0.82 | 0.94 | inactive |
| MTA2 | SID134313353 | 0.45 | 2.25 | inactive |
| EML3 | SID152147670 | 0.82 | 0.86 | inactive |
| ROMO1 | SID135622917 | 0.82 | 1.21 | inactive |
| SSTR4 | SID152154244 | 0.74 | 0.26 | inactive |
| ATP1B2 | SID134314831 | 0.93 | 0.82 | inactive |
| FBXO15 | SID134320492 | 0.8 | 0.82 | inactive |
| DRC8 | SID135622828 | 0.35 | 1.4 | inactive |
| RNF216 | SID134321246 | 0.86 | 0.8 | inactive |
| HNRNPR | SID135622012 | 0.62 | 0.62 | inactive |
| BCO1 | SID152153608 | 0.82 | 0.68 | inactive |
| RDH11 | SID134309974 | 0.37 | 0.79 | inactive |
| PAFAH1B1 | SID152148934 | 0.61 | 0.67 | inactive |
| GALK1 | SID56479189 | 0.45 | 2.25 | inactive |
| CD2AP | SID135622405 | 0.55 | 0.46 | active |
| EPM2AIP1 | SID134322746 | 0.48 | 1.34 | inactive |

Already shown: 13 of the entries above.
| gene symbol | PubChem SID | cell gain with vemurafenib | lactate per cell with vemurafenib | activity call |
| --- | --- | --- | --- | --- |
| PRSS3 | SID134311438 | 0.78 | 0.87 | inactive |
| OR10AG1 | SID134329932 | 0.5 | 1.34 | inactive |
| F2RL3 | SID135621001 | 0.84 | 1.77 | inactive |
| PACS1 | SID152155962 | 0.58 | 1.43 | inactive |
| BNIP2 | SID134316131 | 0.71 | 0.63 | inactive |
| KRT19 | SID152146987 | 0.48 | 0.82 | inactive |
| TRIM3 | SID134312057 | 1.12 | 0.82 | inactive |
| OAZ3 | SID152150281 | 0.29 | 0.55 | inactive |
| PSPHP1 | SID152152694 | 1.27 | 1.08 | inactive |
| SEMA3B | SID152155120 | 0.34 | 1.23 | inactive |
| SLC66A1 | SID152153274 | 0.37 | 0.45 | active |
| SLC35B2 | SID152151548 | 0.73 | 1 | inactive |
| C11orf71 | SID134324209 | 0.36 | 1.5 | inactive |
